Source: patent publication US9394561B2 (National Research Council of Canada, priority 2011, dated 2016)

Assay: peptide made by a vendor
Conditions: whole synthesis

Question: Which “purity (crude or final not stated)” value does the source give for “GVPVWA-FQAKDVENASAPV (GVPVWAFQAKDVENASAPV; listed as Saponaria vaccaria)” here?
Answer: purity>75%
